Results are given in words; binding and its absence hold for the method and conditions named. In cells and extracts the contact can be indirect. Some entries that bind do so weakly or less than the wild type.

Protein sequences, listed by entry. Tags and fused reporters are not part of them.
UniProt P32121: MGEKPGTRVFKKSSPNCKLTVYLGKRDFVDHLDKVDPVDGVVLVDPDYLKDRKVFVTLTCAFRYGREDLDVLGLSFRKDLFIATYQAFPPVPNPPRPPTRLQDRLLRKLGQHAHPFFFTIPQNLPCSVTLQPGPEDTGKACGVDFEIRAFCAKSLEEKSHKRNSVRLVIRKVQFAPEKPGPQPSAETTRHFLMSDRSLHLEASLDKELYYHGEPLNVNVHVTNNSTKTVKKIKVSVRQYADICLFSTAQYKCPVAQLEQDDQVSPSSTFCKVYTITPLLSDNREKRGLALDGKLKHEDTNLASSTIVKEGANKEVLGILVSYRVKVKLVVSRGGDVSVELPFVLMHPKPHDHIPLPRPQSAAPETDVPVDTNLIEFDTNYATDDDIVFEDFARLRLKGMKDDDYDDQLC

The target in assay [1] is Bos taurus FFAR2/GPR43 with an N-terminal FLAG epitope and C-terminal Renilla reniformis luciferase (bFFAR2-Rluc8) (Bos taurus). Nature of the assay: FRET or BRET; BRET in living HEK293A cells; bFFAR2-Rluc8 donor, Venus-mG or yPET-β-arrestin 2 acceptor; cells stimulated with FFAs (C2:0 at 0.1 M, C8:0 at 1 mM, other FFAs at 3.16 mM, or increasing doses); signals recorded 10 min, coelenterazine H 5 µM, AUC of net BRET over solvent control. In general terms: BRET reads energy transfer from a luciferase to a nearby fluorophore.

The target is the same in assay [2]. Nature of the assay: FRET or BRET; BRET in living HEK293A cells as a1, cells stimulated with increasing doses of 2-methyl-propanoic acid (2MP), 10 min.

As for “β-arrestin 2 N-terminally fused with acceptor yPET (YPET-β-arrestin 2) (from UniProt P32121 1-409)”, the values for the binding result in assay [1] and in assay [2] were “binds” and “binds weakly”, respectively.

These data come from publication PMC12405480, “Endogenous ligands of bovine FFAR2/GPR43 display distinct pharmacological properties” (Frontiers in Cell and Developmental Biology, 2025).
